Assay results from PMC8208988.
No constants are given. Whether binding was seen depends on the method and setting. Binding calls can cover weak binding; strength is not graded here. For some of these results: In cells and extracts the contact can be indirect.

What was measured:
MTG1-3xFLAG (human) = assay: co-IP; anti-FLAG M2 affinity gel on mitochondrial lysate (1.6% Triton X-100) of HEK 293 EBNA cells expressing MTG1-3xFLAG; eluted with 3xFLAG peptide and pelleted; what came with the bait was identified by cryo-EM
[1] = target: uL11m (human (endogenous in HEK 293 EBNA)); assay: cryo-EM structure; mt-LSU assembly intermediates affinity-purified through MTG1-3xFLAG from HEK 293 EBNA mitochondria; states A, B, C at 2.9, 3.1, 3.1 Å; 20 mM HEPES-KOH pH 7.6, 100 mM KCl, 20 mM MgCl2, 1 mM DTT

| binding (MTG1-3xFLAG (human)) | Binder | binding [1] |
| --- | --- | --- |
| binds | MRM2 (enzyme, UniProt Q9UI43 19-246) TVGSRCKNRTGAEHLWLTRHLRDPFVKAAKVESYRCRSAFKLLEVNERHQILRPGLRVLDCGAAPGAWSQVAVQKVNAAGTDPSSPVGFVLGVDLLHIFPLEGATFLCPADVTDPRTSQRILEVLPGRRADVILSDMAPNATGFRDLDHDRLISLCLTLLSVTPDILQPGGTFLCKTWAGSQSRRLQRRLTEEFQNVRIIKPEASRKESSEVYFLATQYHGRKGTVKQ |  |
| binds | MTERF4 (protein, UniProt Q7Z6M4 43-381) LTTASNGGVIEELSCVRSNNYVQEPECRRNLVQCLLEKQGTPVVQGSLELERVMSSLLDMGFSNAHINELLSVRRGASLQQLLDIISEFILLGLNPEPVCVVLKKSPQLLKLPIMQMRKRSSYLQKLGLGEGKLKRVLYCCPEIFTMRQQDINDTVRLLKEKCLFTVQQVTKILHSCPSVLREDLGQLEYKFQYAYFRMGIKHPDIVKSEYLQYSLTKIKQRHIYLERLGRYQTPDKKGQTQIPNPLLKDILRVSEAEFLARTACTSVEEFQVFKKLLAREEEESESSTSDDKRASLDEDEDDDDEEDNDEDDNDEDDDDEDDDEAEDNDEDEDDDEEE |  |

| Binder | binding (MTG1-3xFLAG (human)) | binding [1] |
| --- | --- | --- |
| MTG2 (enzyme, UniProt Q9H4K7 1-406) MAPARCFSARLRTVFQGVGHWALSTWAGLKPSRLLPQRASPRLLSVGRADLAKHQELPGKKLLSEKKLKRYFVDYRRVLVCGGNGGAGASCFHSEPRKEFGGPDGGDGGNGGHVILRVDQQVKSLSSVLSRYQGFSGEDGGSKNCFGRSGAVLYIRVPVGTLVKEGGRVVADLSCVGDEYIAALGGAGGKGNRFFLANNNRAPVTCTPGQPGQQRVLHLELKTVAHAGMVGFPNAGKSSLLRAISNARPAVASYPFTTLKPHVGIVHYEGHLQIAVADIPGIIRGAHQNRGLGSAFLRHIERCRFLLFVVDLSQPEPWTQVDDLKYELEMYEKGLSARPHAIVANKIDLPEAQANLSQLRDHLGQEVIVLSALTGENLEQLLLHLKVLYDAYAEAELGQGRQPLRW | binds | binds |
